The text below walks through data of the supplement of paper PMC7666118.

Protein sequences, listed by entry. Tags and fused reporters are not part of them. Lines headed by an entry give the natural chain unless they say otherwise; changes in a name come on top.
UniProt Q9NSI8: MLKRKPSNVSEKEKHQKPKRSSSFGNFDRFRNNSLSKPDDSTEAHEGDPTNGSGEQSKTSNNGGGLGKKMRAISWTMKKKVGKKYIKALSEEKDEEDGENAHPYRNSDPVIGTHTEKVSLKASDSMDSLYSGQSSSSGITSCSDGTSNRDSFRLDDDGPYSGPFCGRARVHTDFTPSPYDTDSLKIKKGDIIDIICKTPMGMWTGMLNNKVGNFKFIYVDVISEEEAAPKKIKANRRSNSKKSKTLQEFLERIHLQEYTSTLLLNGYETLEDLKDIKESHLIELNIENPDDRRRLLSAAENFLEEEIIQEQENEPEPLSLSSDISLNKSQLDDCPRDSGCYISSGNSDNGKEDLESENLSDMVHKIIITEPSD
UniProt Q9Y6D0, whole entry: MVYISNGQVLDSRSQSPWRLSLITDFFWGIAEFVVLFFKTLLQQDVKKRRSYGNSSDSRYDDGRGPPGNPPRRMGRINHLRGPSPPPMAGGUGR
UniProt Q9C0C4, whole entry: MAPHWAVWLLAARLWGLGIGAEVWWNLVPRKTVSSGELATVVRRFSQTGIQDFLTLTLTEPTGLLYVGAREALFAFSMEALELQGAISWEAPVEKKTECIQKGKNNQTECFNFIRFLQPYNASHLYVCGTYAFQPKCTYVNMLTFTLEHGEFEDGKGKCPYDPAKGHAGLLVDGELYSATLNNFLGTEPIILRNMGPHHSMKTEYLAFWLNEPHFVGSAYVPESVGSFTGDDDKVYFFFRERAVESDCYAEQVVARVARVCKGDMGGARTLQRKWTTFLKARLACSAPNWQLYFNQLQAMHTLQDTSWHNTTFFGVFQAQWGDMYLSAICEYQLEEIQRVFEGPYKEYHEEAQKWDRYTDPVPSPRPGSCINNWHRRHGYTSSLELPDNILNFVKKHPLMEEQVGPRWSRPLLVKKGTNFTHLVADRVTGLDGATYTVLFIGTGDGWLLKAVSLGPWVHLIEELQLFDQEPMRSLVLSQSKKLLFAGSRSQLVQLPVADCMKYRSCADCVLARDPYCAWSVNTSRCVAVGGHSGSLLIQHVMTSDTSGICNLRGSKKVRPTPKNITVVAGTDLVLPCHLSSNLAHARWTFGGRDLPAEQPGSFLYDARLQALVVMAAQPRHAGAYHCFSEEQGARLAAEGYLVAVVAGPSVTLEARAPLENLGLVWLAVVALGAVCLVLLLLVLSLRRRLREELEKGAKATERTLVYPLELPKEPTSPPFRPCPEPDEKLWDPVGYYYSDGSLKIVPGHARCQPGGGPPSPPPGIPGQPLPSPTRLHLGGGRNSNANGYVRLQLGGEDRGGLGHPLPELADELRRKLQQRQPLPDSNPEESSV
UniProt Q15436: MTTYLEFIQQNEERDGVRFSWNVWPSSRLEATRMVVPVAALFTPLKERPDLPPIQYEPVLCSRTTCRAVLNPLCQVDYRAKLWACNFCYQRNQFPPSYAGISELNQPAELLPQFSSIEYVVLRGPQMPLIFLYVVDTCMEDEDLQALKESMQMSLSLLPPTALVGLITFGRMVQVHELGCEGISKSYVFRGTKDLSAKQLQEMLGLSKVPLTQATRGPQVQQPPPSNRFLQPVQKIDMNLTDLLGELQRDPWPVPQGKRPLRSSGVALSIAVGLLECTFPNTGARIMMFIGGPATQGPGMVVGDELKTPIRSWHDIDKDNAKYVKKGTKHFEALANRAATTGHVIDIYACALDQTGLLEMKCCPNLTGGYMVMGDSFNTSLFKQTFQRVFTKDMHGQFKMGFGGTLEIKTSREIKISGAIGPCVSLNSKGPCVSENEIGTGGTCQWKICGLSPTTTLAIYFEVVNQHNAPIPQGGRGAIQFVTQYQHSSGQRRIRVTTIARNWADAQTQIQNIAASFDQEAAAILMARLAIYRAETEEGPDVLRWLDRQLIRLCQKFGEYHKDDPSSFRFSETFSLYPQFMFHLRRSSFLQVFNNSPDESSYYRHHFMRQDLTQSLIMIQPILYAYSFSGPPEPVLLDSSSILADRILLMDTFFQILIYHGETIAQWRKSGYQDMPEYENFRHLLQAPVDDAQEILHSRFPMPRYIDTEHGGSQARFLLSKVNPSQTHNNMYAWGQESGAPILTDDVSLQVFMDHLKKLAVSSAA

The list shows a part of the results.

Compound in the assay: COc1ccc(Cn2ccc3cc(C)c(C(=O)NO)cc32)cc1
Nature of the assay: dose-dependent thermal stabilisation call (2D-TPP, DLPTP, 10% FDR) (binary (1 = stabilised)); higher = stabilised by the compound. Particulars: system: HL-60 intact cells; concentration range 0.04-10 µM. Here is the method: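 2D thermal proteome profiling in intact HL-60 cells treated with BRD-3811 (0, 0.04, 0.29, 2, 10 uM) for 90 min at 37 C, then heated 3 min at one of 12 temperatures (42-63.9 C). Soluble protein was quantified by TMT10 MS. The value is the DLPTP call of the paper: dose-dependent thermal stabilisation over all temperatures at 10% FDR (F-test of a dose-response against a flat model); one experiment, one call per tested protein.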
With SAMSN1 (UniProt Q9NSI8), the “dose-dependent thermal stabilisation call” value was inactive: 0.

Turning to SELK (UniProt Q9Y6D0), the “dose-dependent thermal stabilisation call” value was inactive: 0.

On to RPL4 (UniProt P36578), for which the “dose-dependent thermal stabilisation call” value was inactive: 0.

Take RPS10 (UniProt P46783): the “dose-dependent thermal stabilisation call” value is inactive: 0.

With RPL27 (UniProt P61353), the “dose-dependent thermal stabilisation call” value was inactive: 0.

Consider RPL19 (UniProt P84098), for which the “dose-dependent thermal stabilisation call” value was inactive: 0.

With SEMA4C (UniProt Q9C0C4), the “dose-dependent thermal stabilisation call” value is inactive: 0.

SEC23A (UniProt Q15436): the “dose-dependent thermal stabilisation call” value was inactive: 0.

Turning to RPS12 (UniProt P25398), the “dose-dependent thermal stabilisation call” value is inactive: 0.
